Consider 20 sequences from PMC8384837.

Conditions in all cases: yeast three-hybrid, YBZ-1, SC-Leu-His + 0.5 mM 3-AT, 4 days
Test [1] deals with T1, PUM1 PUF domain R1-QFR R2-VFQ R7-NPG S863Q + R864F + Q867R + N899V + Y900F + S1079N + N1080P + E1083G (UniProt Q14671).
T1 sequence: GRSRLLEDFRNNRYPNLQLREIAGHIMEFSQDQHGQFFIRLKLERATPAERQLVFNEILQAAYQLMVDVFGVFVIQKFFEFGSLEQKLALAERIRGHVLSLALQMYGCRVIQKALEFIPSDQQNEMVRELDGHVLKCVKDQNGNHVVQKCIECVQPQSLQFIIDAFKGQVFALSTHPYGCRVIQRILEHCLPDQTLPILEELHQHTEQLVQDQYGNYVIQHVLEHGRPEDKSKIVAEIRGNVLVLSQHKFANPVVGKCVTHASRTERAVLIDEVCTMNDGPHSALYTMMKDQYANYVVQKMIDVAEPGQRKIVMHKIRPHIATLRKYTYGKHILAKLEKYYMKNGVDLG

In test [2] the target is T2, PUM1 PUF domain R5-PHQ R6-SWD C1007P + R1008H + N1043S + Y1044W + Q1047D (UniProt Q14671).
T2 sequence: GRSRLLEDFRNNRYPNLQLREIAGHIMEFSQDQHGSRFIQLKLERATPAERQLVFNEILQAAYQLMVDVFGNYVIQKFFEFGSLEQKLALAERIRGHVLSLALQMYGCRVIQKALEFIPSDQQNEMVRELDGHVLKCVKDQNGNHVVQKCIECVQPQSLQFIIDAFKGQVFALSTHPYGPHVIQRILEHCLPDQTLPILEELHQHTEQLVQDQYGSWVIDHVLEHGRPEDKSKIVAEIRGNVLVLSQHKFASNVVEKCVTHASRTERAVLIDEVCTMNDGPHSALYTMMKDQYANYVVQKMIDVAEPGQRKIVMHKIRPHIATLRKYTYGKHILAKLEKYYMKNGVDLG

The target in test [3] is T3, PUM1 PUF domain R3-THE R4-TFR R7-NPG C935T + R936H + Q939E + N971T + H972F + Q975R + S1079N + N1080P + E1083G (UniProt Q14671).
T3 sequence: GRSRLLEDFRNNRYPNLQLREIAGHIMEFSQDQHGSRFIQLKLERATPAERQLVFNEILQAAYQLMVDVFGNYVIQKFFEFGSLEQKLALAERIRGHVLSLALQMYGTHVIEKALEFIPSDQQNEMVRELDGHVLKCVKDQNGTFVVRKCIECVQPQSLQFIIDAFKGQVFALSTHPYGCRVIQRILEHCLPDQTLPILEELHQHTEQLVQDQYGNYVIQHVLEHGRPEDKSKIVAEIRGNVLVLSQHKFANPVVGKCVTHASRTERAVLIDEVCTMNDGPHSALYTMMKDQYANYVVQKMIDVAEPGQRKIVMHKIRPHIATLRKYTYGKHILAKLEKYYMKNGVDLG

In test [4] the target is T4, PUM1 PUF domain R6-SWD R7-NPG N1043S + Y1044W + Q1047D + S1079N + N1080P + E1083G (Homo sapiens) (UniProt Q14671).
T4 sequence: T2 sequence with P180C, H181R, S252N, N253P, E256G

Numbering of substitutions follows the chain as printed. The list shows a part of the results. For some assays here: At the low end of the ranking, values are background and their order means little. For some assays here: Construct or isoform of the protein are uncertain.

Turning to “GGCUAGAACUAGUGGAUCCCCCGGCGCCCGGCGGCUCGAGCCCGGGUAAGCGGAAGUAGUCUGCAUGCCGCCGGGCGCCAUGCCUGCAGGUCGACUCUAGAAAACAUG”, the values for the binding signal (log2 enrichment (interaction score)) in test [1] and in test [2] were -5.61 and below -7.1, respectively.
For “GGCUAGAACUAGUGGAUCCCCCGGCGCCCGGCGGCUCGAGCCCGGGUAAGGUGAAACUGUCUGCAUGCCGCCGGGCGCCAUGCCUGCAGGUCGACUCUAGAAAACAUG”, the binding signal (log2 enrichment (interaction score)) was below -6.21 in test [1] and -6.94 in test [2].
Turning to “GGCUAGAACUAGUGGAUCCCCCGGCGCCCGGCGGCUCGAGCCCGGGUAAGAUGAAGAUGUCUGCAUGCCGCCGGGCGCCAUGCCUGCAGGUCGACUCUAGAAAACAUG”, the binding signal (log2 enrichment (interaction score)) was -6.5 in test [1], below -2.34 in test [3] and below -7.2 in test [2].
In the case of “GGCUAGAACUAGUGGAUCCCCCGGCGCCCGGCGGCUCGAGCCCGGGUAAGGGUAAGUGGUCUGCAUGCCGCCGGGCGCCAUGCCUGCAGGUCGACUCUAGAAAACAUG”, the results for the binding signal (log2 enrichment (interaction score)) in test [1] and in test [2] were -5.94 and -7.54, respectively.
As for “GGCUAGAACUAGUGGAUCCCCCGGCGCCCGGCGGCUCGAGCCCGGGUAAGUUUCAAUGGUCUGCAUGCCGCCGGGCGCCAUGCCUGCAGGUCGACUCUAGAAAACAUG”, the results for the binding signal (log2 enrichment (interaction score)) in test [1], in test [3] and in test [2] were below -5.85, below -3.04 and -8.16, respectively.
Turning to “GGCUAGAACUAGUGGAUCCCCCGGCGCCCGGCGGCUCGAGCCCGGGUAAGCCGAUAUCGUCUGCAUGCCGCCGGGCGCCAUGCCUGCAGGUCGACUCUAGAAAACAUG”, the binding signal (log2 enrichment (interaction score)) in test [1] was -5.5; in test [2], below -7.19.
For “GGCUAGAACUAGUGGAUCCCCCGGCGCCCGGCGGCUCGAGCCCGGGUAAGUCGACAUAGUCUGCAUGCCGCCGGGCGCCAUGCCUGCAGGUCGACUCUAGAAAACAUG”, the values for the binding signal (log2 enrichment (interaction score)) in test [1] and in test [2] were -5.62 and -6.82, respectively.
With “GGCUAGAACUAGUGGAUCCCCCGGCGCCCGGCGGCUCGAGCCCGGGUAAGUUGUAAAAGUCUGCAUGCCGCCGGGCGCCAUGCCUGCAGGUCGACUCUAGAAAACAUG”, the binding signal (log2 enrichment (interaction score)) in test [1] is -4.78; in test [2], -7.98.
As for “GGCUAGAACUAGUGGAUCCCCCGGCGCCCGGCGGCUCGAGCCCGGGUAAGUUGAAAGAGUCUGCAUGCCGCCGGGCGCCAUGCCUGCAGGUCGACUCUAGAAAACAUG”, the binding signal (log2 enrichment (interaction score)) in test [1] is -6.97; in test [3] it was -2.12; in test [2] it was -7.33.
In the case of “GGCUAGAACUAGUGGAUCCCCCGGCGCCCGGCGGCUCGAGCCCGGGUAAGAUAGAGUAGUCUGCAUGCCGCCGGGCGCCAUGCCUGCAGGUCGACUCUAGAAAACAUG”, the binding signal (log2 enrichment (interaction score)) in test [1] is -7.12; in test [2] it was -8.4.
With “GGCUAGAACUAGUGGAUCCCCCGGCGCCCGGCGGCUCGAGCCCGGGUAAGUUUAAAUUGUCUGCAUGCCGCCGGGCGCCAUGCCUGCAGGUCGACUCUAGAAAACAUG”, the binding signal (log2 enrichment (interaction score)) in test [1] is -5.81; in test [2], below -7.73.
With “GGCUAGAACUAGUGGAUCCCCCGGCGCCCGGCGGCUCGAGCCCGGGUAAGUUUAUGUAGUCUGCAUGCCGCCGGGCGCCAUGCCUGCAGGUCGACUCUAGAAAACAUG”, the binding signal (log2 enrichment (interaction score)) was -5.83 in test [1] and below -7.77 in test [2].
“GGCUAGAACUAGUGGAUCCCCCGGCGCCCGGCGGCUCGAGCCCGGGUAAGUAUAAACCGUCUGCAUGCCGCCGGGCGCCAUGCCUGCAGGUCGACUCUAGAAAACAUG”: the binding signal (log2 enrichment (interaction score)) was -6.37 in test [1] and -6.57 in test [2].
For the sequence “GGCUAGAACUAGUGGAUCCCCCGGCGCCCGGCGGCUCGAGCCCGGGUAAGCUGGAAUAGUCUGCAUGCCGCCGGGCGCCAUGCCUGCAGGUCGACUCUAGAAAACAUG”, the figures for the binding signal (log2 enrichment (interaction score)) in test [1] and in test [2] were -6.18 and below -7.95, respectively.
For the sequence “GGCUAGAACUAGUGGAUCCCCCGGCGCCCGGCGGCUCGAGCCCGGGUAAGUGGAACACGUCUGCAUGCCGCCGGGCGCCAUGCCUGCAGGUCGACUCUAGAAAACAUG”, the binding signal (log2 enrichment (interaction score)) was -5.81 in test [1] and -7.26 in test [2].
On to “GGCUAGAACUAGUGGAUCCCCCGGCGCCCGGCGGCUCGAGCCCGGGUAAGGUUAAAUAGUCUGCAUGCCGCCGGGCGCCAUGCCUGCAGGUCGACUCUAGAAAACAUG”, for which the values for the binding signal (log2 enrichment (interaction score)) in test [1] and in test [2] were -6.83 and -8.62, respectively.
Turning to “GGCUAGAACUAGUGGAUCCCCCGGCGCCCGGCGGCUCGAGCCCGGGUAAGUCUAAUUAGUCUGCAUGCCGCCGGGCGCCAUGCCUGCAGGUCGACUCUAGAAAACAUG”, the binding signal (log2 enrichment (interaction score)) was -5.6 in test [1], below -7.63 in test [2] and -1.2 in test [4].
As to “GGCUAGAACUAGUGGAUCCCCCGGCGCCCGGCGGCUCGAGCCCGGGUAAGUCUACGCCGUCUGCAUGCCGCCGGGCGCCAUGCCUGCAGGUCGACUCUAGAAAACAUG”, the binding signal (log2 enrichment (interaction score)) was below -5.7 in test [1] and -2.22 in test [3].
Consider “GGCUAGAACUAGUGGAUCCCCCGGCGCCCGGCGGCUCGAGCCCGGGUAAGAAGACAACGUCUGCAUGCCGCCGGGCGCCAUGCCUGCAGGUCGACUCUAGAAAACAUG”, for which the binding signal (log2 enrichment (interaction score)) was below -6.09 in test [1] and below -7.3 in test [2].
With “GGCUAGAACUAGUGGAUCCCCCGGCGCCCGGCGGCUCGAGCCCGGGUAAGUUGACAUCGUCUGCAUGCCGCCGGGCGCCAUGCCUGCAGGUCGACUCUAGAAAACAUG”, the binding signal (log2 enrichment (interaction score)) is -4.91 in test [1] and -7.77 in test [2].
